Results: article PMC7295033

Sequences of proteins named here, by UniProt entry; tags and fusion partners are left off.
UniProt Q60857: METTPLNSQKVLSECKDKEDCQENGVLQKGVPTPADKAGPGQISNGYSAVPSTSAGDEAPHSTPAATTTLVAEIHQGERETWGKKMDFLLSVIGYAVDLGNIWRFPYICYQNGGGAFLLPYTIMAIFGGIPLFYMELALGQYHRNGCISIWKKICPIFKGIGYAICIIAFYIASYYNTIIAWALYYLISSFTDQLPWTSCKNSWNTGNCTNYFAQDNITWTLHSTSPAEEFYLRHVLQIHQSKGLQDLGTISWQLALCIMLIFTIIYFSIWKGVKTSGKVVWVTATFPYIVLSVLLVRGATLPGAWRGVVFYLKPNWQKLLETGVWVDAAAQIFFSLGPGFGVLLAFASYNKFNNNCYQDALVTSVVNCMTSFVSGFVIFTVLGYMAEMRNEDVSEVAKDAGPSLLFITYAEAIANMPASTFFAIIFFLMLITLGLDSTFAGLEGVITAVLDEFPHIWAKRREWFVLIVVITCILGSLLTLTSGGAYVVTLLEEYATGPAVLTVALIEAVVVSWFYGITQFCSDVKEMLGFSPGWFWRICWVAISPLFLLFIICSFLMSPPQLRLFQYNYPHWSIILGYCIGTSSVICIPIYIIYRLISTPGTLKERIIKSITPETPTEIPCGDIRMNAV

B1: Dgke (protein, UniProt Q9R1C6 1-564)
chain: MEGDQRSGPPAQSLLPDGHLVLWTLCSVLLPVFITLWCSLQRSRRQLHRRDIFRKSKHCWRDTDLFSHPTYCCVCAQHILQGAFCDCCGLRVDEGCLKKVDKRFPCKEIMLKNDKAADAMPHHWIRGNVPLCSYCVFCRQQCGSQPKLCDYRCIWCQKTVHDECMRGSLRSEKCDFGEFRNLIIPPSYLTSINQMRKDKNTNYEGLASKFGKQWTPLIILANSRSGTNMGEGLLGEFKILLNPVQVFDVTKTPPIKALQLCTLLPYYSVRVLVCGGDGTVGWVLDAIDEMKIKGQEKYIPEVAVLPLGTGNDLSNTLGWGTGYAGEIPVAQVLRNVMEADGIKLDRWKVQVTNKGYYNLRKPKEFTMNNYFSVGPDALMALNFHAHREKAPSLFSSRILNKAVYLFYGTKDCLVQECKDLNKKIELELDGERVELPNLEGIIVLNIGYWGGGCRLWEGMGDETYPLARHDDGLLEIVGVYGSFHCAQIQVKLANPFRIGQAHTVRLTLKCSMMPMQVDGEPWAQGPCTVTITHKTHALMLYFSGEQSDDDISSPSDHEDVKEAE
B2: Acsl6 (protein, UniProt Q91WC3 1-697)
chain: MQTQEILRILRLPELSDLGQFFRSLSATTLVSVGALAAVLAYWLTHRPKALQPPCNLLKQSEEVEDGGGARRSVIGGCTQLLTHYYDDARTMYQVFRRGLSISGNGPCLGFRKPEQPYQWLSYQEVAKRAEFLGSGLLQHDCKVGTEQFVGVFAQNRPEWIIAELACYTYSMVVVPLYDTLGPGSISYIINTADICTVIVDKPHKATLLLEHVERKETPGLKLVILMEPFEDALRERGKKCGVDIKSMQAIEDCGRENHHAPVPPRPDDLSIVCFTSGTTGNPKGAMLTHGNVVADFSGFLKVTEKVIFPRQDDVLISFLPLAHMFERVIQSVVYCHGGRVGFFQGDIRLLSDDMKALRPTIFPVVPRLLNRMYDKIFHQADTSLKRWLLEFAAKRKQAEVRSGIIRNNSIWDELFFNKIQASLGGHVRMIVTGAAPASPTVLGFLRAALGCQVYEGYGQTECTAGCTFTTPGDWTSGHVGAPLPCNHIKLVDAEELNYWTCKGEGEICVKGPNVFKGYLKDEDRTKEALDSDGWLHTGDIGKWLPEGTLKIIDRKKHIFKLAQGEYVAPEKIENIYIRSEPVAQIYVHGDSLKAFLVGIVVPDPEVMPSWAQKKGIEGTYQELCMKKELKKAILDDMVMLGKESGLHSFEQVKAIYIHCDMFSVQNGLLTPTLKAKRPELREYFKKQIEELYLVSV
B3: Gak (protein, UniProt Q99KY4 1-1305)
chain: MSLLQSALDFLAGPGSLGGAAGRDQSDFVGQTVELGELRLRVRRVLAEGGFAFVYEAQDLGSGREYALKRLLSNEEEKNRAIIQEVCFLKKLSGHPNIVQFCSAASIGKEESDTGQAEFLLLTELCKGQLVEFLKRVECKGPLSCDSILKIFYQTCRAVQHMHRQKPPIIHRDLKVENLLLSNQGTIKLCDFGSATTISHYPDYSWSAQKRAMVEEEITRNTTPMYRTPEIVDLYSNFPIGEKQDIWALGCILYLLCFRQHPFEDGAKLRIVNGKYSIPVNDTRYTVFHDLIRAMLKVNPVERLSIAEVVRQLQEIAAARNVNPKAPITELLEQNGGYGNSGPSRAQPPCGGTVNSSGVLALAEYDQPYGGFLDILRGGTERLFTNLKDTSSKVIQSVANYAKGDLDISYITSRIAVMSFPAEGVESAIKNNIEDVRMFLDAKHPGHYAVYNLSPRIYRASKFHNRVTECGWAVRRAPHLHSLYTLCRSMHAWLREDHRNVCVVHCMDGRAASAVAVCAFLCFCRLFSTAEAAVYMFSMKRCPPGIWPSHKRYIEYVCDMVAEEPITPHSKPMLVKSVVMTPVPLFSKQRNGCRPFCEVYVGEERVTTTSQEYDRMKEFKIEDGKAVIPLGVTVQGDVLIIIYHARATLGGRLQAKMASMKMFQIQFHTGFVPRNATTVKFAKYDLDACDIQEKYPDLFQVNLEVEVEPRDRPSREAPPWENTSLRGLNPKILFSNREEQQDILSKFGKPELPRQPGSTAQYDAEAGSPEAEITESDSPQSSSTDTNHFLHTLDWQEEKEPETGLDNTSPKESQSVLIADGDGSEVSDEEEASFPSEERKPGAGEDTPRLAAGTKQQDLIFDVGMLAAPQEPVQPEEGVDLLGLHSEGDLRPAAPLQACGVPSSNTDLLSCLLEPSDAAQVGPPGDLLGGEAPLLLASPVSPLGLQNNLQGKVPDTVDPFDQFLLSSNSDTQPCSKPDLFGEFLNSDSVASSTAFPSTHSAPPPSCSTAFLHLGDLPAEPSKVIASSSHPDLLGGWDTWADTATPGPASIPVPEGTLFSSAGHPAPPGPNPSQTKSQNLDPFADLSDLSSSLQGLPAGLPAGGFVGAPAPTQKSNSPWQANRPTAPGTSWTPQAKPAPRASEQLRSHFSVIGAREERGVRVPSFAQKPKVSENDFEDLLPNQGFSKSDKKGPKTMAEMRKQELARDTDPLKLKLLDWIEGKERNIRALLSTLHTVLWDGESRWTPVSMADLVTPEQVKKQYRRAVLVVHPDKATGQPYEQYAKMIFMELNDAWSEFENQGSRPLF
B4: Araf (protein, UniProt P04627 1-604)
chain: MEPPRGPPVSGAEPSRAVGTVKVYLPNKQRTVVTVREGMSVYDSLDKALKVRGLNQDCCVVYRLIKGRKTVTAWDTAIAPLDGEELIVEVLEDVPLTMHNFVRKTFFSLAFCDFCLKFLFHGFRCQTCGYKFHQHCSSKVPTVCVDMSTNRRQFYHSIQDLSGGSRQQEAPSNLSVNELLTPQGPSPFTQQRDQEHFSFPAPANPPLQRIRSTSTPNVHMVSTTAPMDSSLMQFTAQSFSTDAAGRGGDGAPRGSPSPASVSSGRKSPHSKLPSEQRERKSLADEKKKVKNLGYRDSGYYWEVPPSEVQLLKRIGTGSFGTVFRGRWHGDVAVKVLKVAQPTAEQAQAFKNEMQVLRKTRHVNILLFMGFMTRPGFAIITQWCEGSSLYHHLHVADTRFDMVQLIDVARQTAQGMDYLHAKNIIHRDLKSNNIFLHEGLTVKIGDFGLATVKTRWSGAQPLEQPSGSVLWMAAEVIRMQDPNPYSFQSDVYAYGVVLYELMTGSLPYSHIGSRDQIIFMVGRGYLSPDLSKIFSNCPKAMRRLLTDCLKFQREERPLFPQILATIELLQRSLPKIERSASEPSLHRTQADELPACLLSAARLVP
B5: Atp9a (protein, UniProt O70228 1-1047)
chain: MTDSIPLQPVRHKKRVDSRPRAGCCEWLRCCGGGEPRPRTVWLGHPEKRDQRYPRNVINNQKYNFFTFLPGVLFSQFRYFFNFYFLLLACSQFVPEMRLGALYTYWVPLGFVLAVTIIREAVEEIRCYVRDKEMNSQVYSRLTSRGTVKVKSSNIQVGDLILVEKNQRVPADMIFLRTSEKNGSCFLRTDQLDGETDWKLRLPVACTQRLPTAADLLQIRSYVYAEEPNIDIHNFLGTFTREDSDPPISESLSIENTLWAGTVIASGTVVGVVLYTGRELRSVMNTSDPRSKIGLFDLEVNCLTKILFGALVVVSLVMVALQHFAGRWYLQIIRFLLLFSNIIPISLRVNLDMGKIVYSWVIRRDSKIPGTVVRSSTIPEQLGRISYLLTDKTGTLTQNEMVFKRLHLGTVAYGLDSMDEVQSHIFSIYTQQSQDPPAQKGPTVTTKVRRTMSSRVHEAVKAIALCHNVTPVYESNGVTDQAEAEKQFEDSCRVYQASSPDEVALVQWTESVGLTLVGRDQSSMQLRTPGDQVLNLTILQVFPFTYESKRMGIIVRDESTGEITFYMKGADVVMAGIVQYNDWLEEECGNMAREGLRVLVVAKKSLTEEQYQDFEARYVQAKLSVHDRSLKVATVIESLEMEMELLCLTGVEDQLQADVRPTLETLRNAGIKVWMLTGDKLETATCTAKNAHLVTRNQDIHVFRLVTNRGEAHLELNAFRRKHDCALVISGDSLEVCLKYYEYEFMELACQCPAVVCCRCAPTQKAQIVRLLQERTGKLTCAVGDGGNDVSMIQESDCGVGVEGKEGKQASLAADFSITQFKHLGRLLMVHGRNSYKRSAALSQFVIHRSLCISTMQAVFSSVFYFASVPLYQGFLIIGYSTIYTMFPVFSLVLDKDVKSEVAMLYPELYKDLLKGRPLSYKTFLIWVLISIYQGSTIMYGALLLFESEFVHIVAISFTSLILTELLMVALTIQTWHWLMTVAELLSLACYIASLVFLHEFIDVYFIATLSFLWKVSVITLVSCLPLYVLKYLRRRFSPPSYSKLTS

What follows are binders tested against serotonin transporter, wildtype (WT SERT) (mouse (endogenous in midbrain synaptosomes)) (UniProt Q60857) (assay: affinity purification with mass spectrometry; SERT immunoprecipitated with C-terminal anti-SERT serum #48 cross-linked to protein A Dynabeads from midbrain synaptosomes (lysed in PBS + 0.7% DDM, 4°C) of WT, SERT Ala56 and SERT KO (negative control) mice; in-gel tryptic digestion, 8-step MudPIT LC-MS/MS; label-free quantification).

binding, binds:
B1
B2
B3
B4
B5

No constants are given. Whether binding was seen depends on the method and setting. Binding seen in cells or lysates may run through a third protein. A yes stands for co-enrichment or nearness to the bait. Other partners may have been found.
